For one molecule, binding results are on record in article PMC10405849, “Soluble CD93 lectin-like domain sequesters HMGB1 to ameliorate inflammatory diseases” (Theranostics, 2023).

Amino acid sequences for entries named in this document (tags omitted). Residues count along the entry.
UniProt Q15109, residues 23-342: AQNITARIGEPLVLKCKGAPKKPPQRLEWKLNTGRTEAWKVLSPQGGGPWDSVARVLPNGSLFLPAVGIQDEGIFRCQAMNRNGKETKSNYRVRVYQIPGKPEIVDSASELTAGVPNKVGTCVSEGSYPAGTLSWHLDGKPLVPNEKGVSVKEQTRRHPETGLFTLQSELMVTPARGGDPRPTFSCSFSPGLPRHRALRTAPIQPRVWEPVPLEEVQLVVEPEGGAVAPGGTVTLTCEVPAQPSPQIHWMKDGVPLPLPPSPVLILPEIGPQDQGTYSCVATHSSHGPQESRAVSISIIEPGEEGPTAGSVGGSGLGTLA

The target of test [1] is soluble RAGE (sRAGE), containing the extracellular ligand-binding domain of RAGE (UniProt Q15109). Briefly: ELISA; competitive assay; sRAGE (10 nM) coated on the plate; HMGB1 with indicated concentrations of rCD93D123, rCD93D1, rCD93D23 or BSA in reaction buffer overnight at 4 °C; detected with anti-HMGB1 antibody; both purified.
Test [2] concerns the target soluble recombinant human CD93 ectodomain protein rCD93D23 (Val258-Lys580) (human) (UniProt Q9NPY3). Nature of the test: far-Western, overlay or dot blot; rCD93D1, rCD93D23, rCD93D123 and BSA separated by 10% SDS-PAGE, transferred to PVDF membrane, hybridized with HMGB1 (0.5 μg/ml) in PBS overnight at 4 °C; detected with anti-HMGB1 antibody; both purified.
Test [3] has as its target T1, soluble recombinant human CD93 lectin-like domain rCD93D1 (Thr22-Gly177) (human) (UniProt Q9NPY3).
T1 sequence: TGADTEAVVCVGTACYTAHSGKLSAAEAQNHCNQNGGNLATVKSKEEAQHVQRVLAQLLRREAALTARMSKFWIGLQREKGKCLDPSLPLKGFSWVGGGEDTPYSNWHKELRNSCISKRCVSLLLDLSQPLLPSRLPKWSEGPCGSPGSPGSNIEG
The description is as above.

Test [4] deals with T1, soluble recombinant human CD93 lectin-like domain rCD93D1 (Thr22-Gly177) (human). Briefly: ELISA; solid-phase binding assay; rCD93D123, rCD93D1, rCD93D23 or BSA coated on the plate; indicated doses of HMGB1 in 1 mg/ml BSA, 20 mM Tris-HCl, 0.15 M NaCl, 5 mM CaCl2 overnight at 4 °C; detected with anti-HMGB1 antibody; both purified. (In an ELISA, binding on a coated surface is turned into a signal by an enzyme label.)

Results are given in words; binding and its absence hold for the method and conditions named. Some binding calls cover weakened binding; strength is not graded here.

B1: recombinant human high-mobility group box 1 (HMGB1) protein (natural protein, UniProt P09429 1-215, looked up)
chain: MGKGDPKKPRGKMSSYAFFVQTCREEHKKKHPDASVNFSEFSKKCSERWKTMSAKEKGKFEDMAKADKARYEREMKTYIPPKGETKKKFKDPNAPKRPPSAFFLFCSEYRPKIKGEHPGLSIGDVAKKLGEMWNNTAADDKQPYEKKAAKLKEKYEKDIAAYRAKGKPDAAKKGVVKAEKSKKKKEEEEDEEDEEDEEEEEDEEDEDEEEDDDDE
notes: High-mobility group box 1 protein, human, recombinant; No catalogue number is printed; source: bought: R&D Systems
On to B1, for which the binding result in test [1] is “binds”; in test [2] it was “binds weakly”; in test [3], “binds”; in test [4], “binds”.
